# Measurements from the supplement of paper PMC10849652.
# Chains of the proteins cited; added tags and fusions are not shown. Lines headed by an entry give the natural chain unless they say otherwise; changes in a name come on top.
# UniProt Q6NTE8: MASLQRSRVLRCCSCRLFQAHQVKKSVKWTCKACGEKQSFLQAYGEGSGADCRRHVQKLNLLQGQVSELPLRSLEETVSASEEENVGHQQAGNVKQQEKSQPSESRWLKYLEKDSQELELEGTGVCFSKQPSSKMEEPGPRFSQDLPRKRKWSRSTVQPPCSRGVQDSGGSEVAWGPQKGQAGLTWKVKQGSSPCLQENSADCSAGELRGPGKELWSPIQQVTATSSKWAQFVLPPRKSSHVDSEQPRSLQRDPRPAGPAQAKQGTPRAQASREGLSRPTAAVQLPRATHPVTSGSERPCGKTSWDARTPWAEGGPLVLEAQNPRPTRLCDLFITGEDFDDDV
# UniProt P08473: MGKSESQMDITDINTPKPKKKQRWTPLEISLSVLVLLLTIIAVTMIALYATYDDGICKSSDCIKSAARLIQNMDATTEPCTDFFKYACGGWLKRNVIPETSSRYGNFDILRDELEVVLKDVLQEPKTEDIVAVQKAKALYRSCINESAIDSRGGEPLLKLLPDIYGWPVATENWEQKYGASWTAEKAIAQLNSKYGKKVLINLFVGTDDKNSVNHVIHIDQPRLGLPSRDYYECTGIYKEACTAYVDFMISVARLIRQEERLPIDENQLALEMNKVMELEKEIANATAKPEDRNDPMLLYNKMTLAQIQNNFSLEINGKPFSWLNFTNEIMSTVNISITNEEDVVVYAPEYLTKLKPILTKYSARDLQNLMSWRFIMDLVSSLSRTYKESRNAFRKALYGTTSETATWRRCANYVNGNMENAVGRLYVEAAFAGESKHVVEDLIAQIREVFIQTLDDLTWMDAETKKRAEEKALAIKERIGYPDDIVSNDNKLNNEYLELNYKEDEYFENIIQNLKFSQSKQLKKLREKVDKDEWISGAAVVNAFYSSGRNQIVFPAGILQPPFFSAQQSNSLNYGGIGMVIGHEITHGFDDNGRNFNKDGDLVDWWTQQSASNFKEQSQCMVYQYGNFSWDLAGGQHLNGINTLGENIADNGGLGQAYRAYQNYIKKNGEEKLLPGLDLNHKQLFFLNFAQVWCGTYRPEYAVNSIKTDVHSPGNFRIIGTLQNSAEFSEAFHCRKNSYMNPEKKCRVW
# UniProt Q9H8S9: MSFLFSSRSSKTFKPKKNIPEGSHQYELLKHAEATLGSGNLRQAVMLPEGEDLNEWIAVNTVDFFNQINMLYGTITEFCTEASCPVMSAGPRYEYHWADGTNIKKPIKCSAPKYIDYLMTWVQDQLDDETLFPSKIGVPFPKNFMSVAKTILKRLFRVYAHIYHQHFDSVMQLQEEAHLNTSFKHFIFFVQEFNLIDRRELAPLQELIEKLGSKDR
# UniProt Q6ZRQ5: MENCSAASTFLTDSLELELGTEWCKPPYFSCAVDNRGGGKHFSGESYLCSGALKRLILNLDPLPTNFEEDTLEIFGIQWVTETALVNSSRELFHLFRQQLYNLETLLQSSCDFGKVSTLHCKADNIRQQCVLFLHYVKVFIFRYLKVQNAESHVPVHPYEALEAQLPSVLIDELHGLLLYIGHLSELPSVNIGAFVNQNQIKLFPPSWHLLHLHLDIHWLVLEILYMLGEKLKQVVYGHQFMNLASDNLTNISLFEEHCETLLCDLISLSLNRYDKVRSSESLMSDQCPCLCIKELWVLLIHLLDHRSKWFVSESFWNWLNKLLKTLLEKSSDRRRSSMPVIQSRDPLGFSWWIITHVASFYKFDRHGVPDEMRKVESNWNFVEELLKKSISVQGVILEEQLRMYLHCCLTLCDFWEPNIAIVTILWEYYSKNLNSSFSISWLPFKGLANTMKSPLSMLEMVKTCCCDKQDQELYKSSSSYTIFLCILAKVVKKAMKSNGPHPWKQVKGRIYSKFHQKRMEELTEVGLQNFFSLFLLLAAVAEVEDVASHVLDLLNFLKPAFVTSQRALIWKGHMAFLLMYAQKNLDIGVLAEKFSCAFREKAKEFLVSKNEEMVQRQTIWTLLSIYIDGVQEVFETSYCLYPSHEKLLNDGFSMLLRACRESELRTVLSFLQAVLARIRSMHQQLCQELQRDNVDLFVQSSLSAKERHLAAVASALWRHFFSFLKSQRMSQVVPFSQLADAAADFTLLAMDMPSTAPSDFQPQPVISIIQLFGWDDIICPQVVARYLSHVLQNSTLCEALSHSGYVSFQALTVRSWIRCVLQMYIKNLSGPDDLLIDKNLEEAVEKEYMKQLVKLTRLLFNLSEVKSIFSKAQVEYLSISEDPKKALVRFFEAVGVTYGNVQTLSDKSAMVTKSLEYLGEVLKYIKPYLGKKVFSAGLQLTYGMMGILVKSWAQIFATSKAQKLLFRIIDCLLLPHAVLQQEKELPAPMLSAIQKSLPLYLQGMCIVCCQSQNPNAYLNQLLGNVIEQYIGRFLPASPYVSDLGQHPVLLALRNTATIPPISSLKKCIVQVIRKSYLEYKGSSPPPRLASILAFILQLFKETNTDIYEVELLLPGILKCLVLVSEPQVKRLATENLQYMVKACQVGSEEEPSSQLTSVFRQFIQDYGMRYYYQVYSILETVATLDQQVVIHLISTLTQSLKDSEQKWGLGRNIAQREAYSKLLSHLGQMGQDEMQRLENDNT
# UniProt Q99550: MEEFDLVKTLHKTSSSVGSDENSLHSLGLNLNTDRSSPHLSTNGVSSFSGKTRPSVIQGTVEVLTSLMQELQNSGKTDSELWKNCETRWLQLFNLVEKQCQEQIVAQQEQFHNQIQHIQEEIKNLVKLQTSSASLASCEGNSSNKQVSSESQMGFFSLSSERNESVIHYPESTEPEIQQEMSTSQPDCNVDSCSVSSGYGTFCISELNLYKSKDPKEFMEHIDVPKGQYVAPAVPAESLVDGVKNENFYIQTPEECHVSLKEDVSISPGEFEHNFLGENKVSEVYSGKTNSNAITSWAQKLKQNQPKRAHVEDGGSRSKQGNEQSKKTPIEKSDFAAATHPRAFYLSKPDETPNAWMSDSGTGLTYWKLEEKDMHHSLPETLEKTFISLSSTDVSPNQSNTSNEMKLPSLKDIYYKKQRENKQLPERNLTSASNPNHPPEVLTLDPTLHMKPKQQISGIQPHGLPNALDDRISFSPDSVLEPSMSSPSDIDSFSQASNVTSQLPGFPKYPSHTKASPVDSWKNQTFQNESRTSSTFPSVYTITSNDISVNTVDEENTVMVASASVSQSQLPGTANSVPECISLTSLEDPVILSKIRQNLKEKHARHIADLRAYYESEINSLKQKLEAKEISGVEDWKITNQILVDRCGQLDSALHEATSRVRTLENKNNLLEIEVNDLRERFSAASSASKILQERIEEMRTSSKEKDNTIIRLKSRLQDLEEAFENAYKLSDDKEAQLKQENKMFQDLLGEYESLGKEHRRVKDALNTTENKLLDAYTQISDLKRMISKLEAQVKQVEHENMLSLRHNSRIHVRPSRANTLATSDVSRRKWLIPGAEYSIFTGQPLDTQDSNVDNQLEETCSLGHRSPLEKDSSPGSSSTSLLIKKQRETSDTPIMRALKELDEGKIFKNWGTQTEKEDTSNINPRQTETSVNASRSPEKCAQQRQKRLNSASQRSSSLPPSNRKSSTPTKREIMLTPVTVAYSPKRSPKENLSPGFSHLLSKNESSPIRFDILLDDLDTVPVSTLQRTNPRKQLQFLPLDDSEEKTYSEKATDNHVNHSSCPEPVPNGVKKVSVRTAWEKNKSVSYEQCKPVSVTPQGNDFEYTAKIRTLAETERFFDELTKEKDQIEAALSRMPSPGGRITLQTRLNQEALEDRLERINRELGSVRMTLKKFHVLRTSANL
# UniProt O95822: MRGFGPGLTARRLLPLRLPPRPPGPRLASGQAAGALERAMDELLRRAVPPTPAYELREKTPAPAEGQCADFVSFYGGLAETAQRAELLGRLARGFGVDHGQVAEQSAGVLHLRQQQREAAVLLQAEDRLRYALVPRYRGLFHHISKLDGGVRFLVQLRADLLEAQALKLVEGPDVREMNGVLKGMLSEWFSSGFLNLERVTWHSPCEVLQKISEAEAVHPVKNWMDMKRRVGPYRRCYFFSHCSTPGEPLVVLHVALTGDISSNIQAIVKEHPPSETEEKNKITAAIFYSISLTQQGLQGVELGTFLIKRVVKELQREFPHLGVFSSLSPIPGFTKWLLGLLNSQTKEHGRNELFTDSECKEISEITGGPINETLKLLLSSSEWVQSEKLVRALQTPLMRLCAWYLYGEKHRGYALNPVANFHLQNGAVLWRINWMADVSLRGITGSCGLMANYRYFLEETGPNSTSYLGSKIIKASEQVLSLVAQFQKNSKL
# UniProt Q29983, whole entry, looked up: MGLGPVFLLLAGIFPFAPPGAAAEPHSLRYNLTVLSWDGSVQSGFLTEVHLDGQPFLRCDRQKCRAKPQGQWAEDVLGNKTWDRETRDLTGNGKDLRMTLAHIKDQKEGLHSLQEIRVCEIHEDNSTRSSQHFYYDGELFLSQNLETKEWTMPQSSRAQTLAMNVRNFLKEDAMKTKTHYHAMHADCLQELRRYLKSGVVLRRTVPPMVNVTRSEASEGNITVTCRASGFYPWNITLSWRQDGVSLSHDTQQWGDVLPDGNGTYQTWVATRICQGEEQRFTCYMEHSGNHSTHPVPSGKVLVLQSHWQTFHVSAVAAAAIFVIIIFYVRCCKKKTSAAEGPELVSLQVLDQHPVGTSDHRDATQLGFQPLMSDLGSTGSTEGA
# UniProt Q4G0A6: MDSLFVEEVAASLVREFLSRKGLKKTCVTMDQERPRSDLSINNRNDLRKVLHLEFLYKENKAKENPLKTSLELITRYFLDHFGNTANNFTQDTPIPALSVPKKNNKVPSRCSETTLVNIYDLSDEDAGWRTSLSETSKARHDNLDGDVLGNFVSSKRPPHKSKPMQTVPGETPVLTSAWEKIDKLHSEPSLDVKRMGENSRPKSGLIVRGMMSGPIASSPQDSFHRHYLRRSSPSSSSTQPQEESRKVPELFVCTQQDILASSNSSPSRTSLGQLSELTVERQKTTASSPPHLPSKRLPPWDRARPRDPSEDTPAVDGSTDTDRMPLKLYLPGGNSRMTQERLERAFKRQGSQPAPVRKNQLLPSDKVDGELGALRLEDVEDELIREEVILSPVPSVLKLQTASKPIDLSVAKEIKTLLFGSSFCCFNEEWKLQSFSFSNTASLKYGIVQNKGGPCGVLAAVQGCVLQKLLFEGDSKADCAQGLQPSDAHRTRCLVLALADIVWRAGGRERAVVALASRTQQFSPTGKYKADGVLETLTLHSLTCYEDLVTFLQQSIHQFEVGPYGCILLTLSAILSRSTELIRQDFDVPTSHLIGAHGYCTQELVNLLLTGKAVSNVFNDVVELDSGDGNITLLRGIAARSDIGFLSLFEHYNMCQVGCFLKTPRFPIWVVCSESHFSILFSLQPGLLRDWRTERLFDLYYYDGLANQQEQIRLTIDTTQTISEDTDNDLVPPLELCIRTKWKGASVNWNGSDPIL
# UniProt O96033: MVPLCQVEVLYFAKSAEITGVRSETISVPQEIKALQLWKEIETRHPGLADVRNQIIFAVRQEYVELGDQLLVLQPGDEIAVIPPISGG
# UniProt Q9NP71: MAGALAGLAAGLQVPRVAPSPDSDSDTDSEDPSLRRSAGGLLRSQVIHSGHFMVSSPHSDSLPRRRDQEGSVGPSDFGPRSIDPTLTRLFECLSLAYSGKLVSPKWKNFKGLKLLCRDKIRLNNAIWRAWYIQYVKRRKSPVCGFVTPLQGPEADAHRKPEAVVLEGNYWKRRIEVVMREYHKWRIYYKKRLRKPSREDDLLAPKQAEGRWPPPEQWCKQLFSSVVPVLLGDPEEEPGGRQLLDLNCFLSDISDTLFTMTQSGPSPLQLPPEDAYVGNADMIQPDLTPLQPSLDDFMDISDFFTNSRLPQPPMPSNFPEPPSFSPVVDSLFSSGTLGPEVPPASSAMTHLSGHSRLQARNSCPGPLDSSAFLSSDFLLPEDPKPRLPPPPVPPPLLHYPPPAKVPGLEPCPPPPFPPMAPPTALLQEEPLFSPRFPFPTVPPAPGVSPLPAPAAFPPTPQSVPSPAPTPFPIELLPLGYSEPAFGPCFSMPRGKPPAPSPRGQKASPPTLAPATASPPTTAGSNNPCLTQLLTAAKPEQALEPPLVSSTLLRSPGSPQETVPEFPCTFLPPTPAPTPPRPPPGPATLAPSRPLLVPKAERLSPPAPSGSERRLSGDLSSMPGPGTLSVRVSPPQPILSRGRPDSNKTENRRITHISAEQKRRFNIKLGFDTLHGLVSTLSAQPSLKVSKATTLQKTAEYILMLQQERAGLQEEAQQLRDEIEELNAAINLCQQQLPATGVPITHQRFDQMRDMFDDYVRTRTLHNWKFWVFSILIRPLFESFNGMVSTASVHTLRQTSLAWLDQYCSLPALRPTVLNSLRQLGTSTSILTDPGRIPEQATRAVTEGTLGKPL
# UniProt Q6UWV2: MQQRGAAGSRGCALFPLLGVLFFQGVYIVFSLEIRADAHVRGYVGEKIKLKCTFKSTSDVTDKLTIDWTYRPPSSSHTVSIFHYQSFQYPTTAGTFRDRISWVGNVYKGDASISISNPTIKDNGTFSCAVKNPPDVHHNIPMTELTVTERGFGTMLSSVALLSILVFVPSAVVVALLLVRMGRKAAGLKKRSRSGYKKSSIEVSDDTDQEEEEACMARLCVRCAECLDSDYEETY
# The list shows a part of the results.
# How the values were obtained:
# Experiment in all cases: log2 fold change, soluble protein after heating vs DMSO (PISA); higher = thermal stabilisation; K562 lysate, 10 uM; active = over 0.2 and 3.5 SD of the protein, either way, in both replicates (recomputed)
# [1] = compound: C#Cc1cccc(Nc2ncnc3cc(OCCOC)c(OCCOC)cc23)c1 [erlotinib]
# Summary of the method: (§1)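 Soluble protein was defined as the supernatant remaining after 21,000xg for 90 min, following pooling of heated aliquots and adjustment to 0.5% NP-40 at 4°C. Before that, crude K562 extract at 1 mg/mL protein in PBS pH 7.4 with 1 mM MgCl2 was treated with 10 μM compound for 30 min and heated for 3 min across 48°C-58°C. Quantification used TMTpro 16plex LC-MS/MS with channel sums equalised, and values are log-two fold changes in thermal stability relative to solvent controls from duplicates.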
# [2] = compound: C/C(=N\NC(=O)C1=CC(=CC=C1)S(=O)(=O)N2CCOCC2)/C3=C(C=CC(=C3)Cl)O
# Summary of the method: as §1
# [3] = compound: C1=CC(=CC=C1C2=NC3=C(N2)C=C(C=C3)C(=O)N)OC4=CC=C(C=C4)Cl
# Summary of the method: as §1
# [4] = compound: C1=CC2=C(C=CC(=C2)/C=C\3/C(=O)NC(=NCC4=CC=CS4)S3)N=C1
# Summary of the method: as §1
# [5] = compound: C1=CC=C(C=C1)C2=NC(=C(N2)C3=CC=NC=C3)C4=CC(=C(C=C4)Cl)O
# Summary of the method: as §1
# [6] = compound: C1=CC=C2C(=C1)C3=NNC4=CC=CC(=C43)C2=O
# Summary of the method: as §1
# [7] = compound: C1CCN(C1)C(=O)NC2=CC=CC(=C2)NC3=NC=C(C(=N3)NCCC4=CN=CN4)Br
# Summary of the method: as §1
# [8] = compound: C1CN(CCC1(CC2=CC=C(C=C2)Cl)N)C3=NC=NC4=C3C=CN4
# Summary of the method: as §1
# [9] = compound: C1COCCN1CCN2C3=CC=CC=C3N=C2NC(=O)C4=CC(=CC=C4)[N+](=O)[O-] [IRAK-1-4 Inhibitor I]
# Summary of the method: as §1
# [10] = compound: C1=CC2=NC=CN=C2C=C1/C=C/3\C(=O)NC(=O)S3
# Summary of the method: as §1
Target,log2 fold change [1],log2 fold change [2],log2 fold change [3],log2 fold change [4],log2 fold change [5],log2 fold change [6],log2 fold change [7],log2 fold change [8],log2 fold change [9],log2 fold change [10]
MKKS (UniProt Q9HB66),inactive: 0.021,inactive: -0.095,inactive: 0.118,inactive: 0.054,inactive: -0.009,inactive: 0.008,inactive: -0.014,inactive: 0.087,inactive: -0.008,–
MIGA2 (UniProt Q7L4E1),inactive: -0.013,–,inactive: -0.095,–,inactive: -0.033,–,inactive: 0.061,inactive: -0.204,inactive: 0.063,–
MLF1 isoform 3 (UniProt P58340),–,inactive: 0.029,–,inactive: 0.024,–,inactive: -0.036,–,–,–,–
MRAS (UniProt O14807),inactive: 0.063,inactive: 0.023,inactive: 0.019,inactive: -0.006,–,inactive: 0.072,inactive: 0.051,inactive: 0.014,–,inactive: -0.179
MRPL2 (UniProt Q5T653),inactive: -0.065,inactive: 0.1,inactive: 0.005,inactive: 0.002,inactive: 0.012,inactive: 0.004,–,–,inactive: 0.025,inactive: 0.02
MLKL (UniProt Q8NB16),inactive: -0.012,–,inactive: -0.22,–,inactive: -0.039,–,inactive: -0.118,inactive: -0.2,inactive: 0.03,inactive: -0.131
MMACHC (UniProt Q9Y4U1),–,inactive: -0.026,–,inactive: 0.038,inactive: -0.033,inactive: 0.108,–,–,inactive: 0.05,inactive: 0.05
MRNIP (UniProt Q6NTE8),inactive: -0.026,–,inactive: -0.039,–,inactive: 0.068,–,–,–,inactive: 0.075,inactive: 0.067
MMGT1 (UniProt Q8N4V1),inactive: -0.013,–,inactive: 0.021,–,inactive: -0.019,–,inactive: -0.031,inactive: 0.035,inactive: -0.032,inactive: -0.042
MME (UniProt P08473),inactive: 0,–,inactive: 0.052,–,inactive: 0.011,–,–,–,inactive: 0.095,inactive: -0.067
MGRN1 isoform 2 (UniProt O60291),inactive: 0.067,inactive: -0.066,inactive: -0.1,inactive: -0.025,–,inactive: -0.066,inactive: -0.003,inactive: -0.004,–,inactive: 0.073
MOB1A (UniProt Q9H8S9),–,inactive: -0.116,–,inactive: -0.072,–,inactive: -0.082,inactive: -0.084,inactive: 0,–,–
MITF (UniProt O75030),inactive: -0.032,inactive: 0.029,inactive: 0.019,inactive: -0.029,inactive: 0.023,inactive: 0.13,inactive: 0.083,inactive: 0.029,inactive: -0.018,–
MICAL2 (UniProt O94851),inactive: -0.07,inactive: 0.104,inactive: -0.14,inactive: 0.02,inactive: 0.108,inactive: 0.01,–,–,inactive: -0.034,inactive: -0.205
MRC2 (UniProt Q9UBG0),inactive: -0.225,–,inactive: 0.031,–,–,–,inactive: 0.011,inactive: 0.061,–,–
MMS22L (UniProt Q6ZRQ5),inactive: 0.067,inactive: 0.032,inactive: 0,inactive: -0.093,–,inactive: 0.064,inactive: 0.019,inactive: -0.021,–,inactive: 0.037
MIIP (UniProt Q5JXC2),inactive: 0.197,–,inactive: 0,–,inactive: 0.091,–,–,–,inactive: -0.085,inactive: -0.103

# Quoted at random: two records from the list, in no set order.
Target,log2 fold change [1],log2 fold change [2],log2 fold change [3],log2 fold change [4],log2 fold change [5],log2 fold change [6],log2 fold change [7],log2 fold change [8],log2 fold change [9],log2 fold change [10]
MICAL2 (UniProt O94851),inactive: -0.07,inactive: 0.104,inactive: -0.14,inactive: 0.02,inactive: 0.108,inactive: 0.01,–,–,inactive: -0.034,inactive: -0.205
MITF (UniProt O75030),inactive: -0.032,inactive: 0.029,inactive: 0.019,inactive: -0.029,inactive: 0.023,inactive: 0.13,inactive: 0.083,inactive: 0.029,inactive: -0.018,–

# Further results

Target,log2 fold change [1],log2 fold change [2],log2 fold change [3],log2 fold change [4],log2 fold change [5],log2 fold change [6],log2 fold change [7],log2 fold change [8],log2 fold change [9],log2 fold change [10]
MPHOSPH9 (UniProt Q99550),inactive: -0.051,inactive: 0.072,inactive: 0.057,inactive: -0.445,–,inactive: 0.118,inactive: -0.014,inactive: 0.026,–,inactive: 0.083
MLYCD (UniProt O95822),inactive: 0,–,inactive: -0.028,–,inactive: 0.075,–,inactive: -0.094,inactive: 0.147,inactive: -0.016,inactive: -0.028
MINDY2 (UniProt Q8NBR6),–,–,–,–,inactive: 0.002,–,inactive: 0.103,inactive: 0.089,inactive: 0,inactive: -0.002
MKNK2 (UniProt Q9HBH9),inactive: 0.109,inactive: 0.063,inactive: -0.131,inactive: -0.014,inactive: -0.051,inactive: -0.05,inactive: 0.147,inactive: 0.063,inactive: 0.069,–
MKKS (UniProt Q9NPJ1),–,inactive: 0.154,–,inactive: -0.041,–,inactive: -0.077,inactive: 0.069,inactive: -0.085,–,inactive: 0.023
MR1 (UniProt Q95460),inactive: 0.046,inactive: 0.1,inactive: -0.009,inactive: -0.057,–,inactive: -0.06,inactive: 0.006,inactive: -0.057,–,inactive: 0.091
MRPL18 (UniProt Q9H0U6),–,inactive: 0.015,–,inactive: 0.025,inactive: 0.052,inactive: -0.065,inactive: -0.063,inactive: -0.041,inactive: -0.146,–
MICA (UniProt Q29983),–,–,–,–,–,–,–,–,–,inactive: 0.018
MINDY4 (UniProt Q4G0A6),–,–,–,–,inactive: 0.023,–,–,–,inactive: -0.053,inactive: -0.025
MOCS2 (UniProt O96033),–,–,–,–,inactive: 0.009,–,–,–,inactive: -0.029,–
MLXIPL (UniProt Q9NP71),inactive: 0.034,–,inactive: 0.031,–,inactive: -0.256,–,–,–,inactive: 0.127,–
MPDZ (UniProt O75970),inactive: -0.017,inactive: -0.061,inactive: -0.095,inactive: -0.273,inactive: -0.091,inactive: 0.004,inactive: -0.099,inactive: 0.108,inactive: 0.149,–
MNT (UniProt Q99583),inactive: -0.181,inactive: -0.079,inactive: 0.223,inactive: 0.048,inactive: -0.007,inactive: 0.007,inactive: 0.036,inactive: 0.03,inactive: -0.003,–
MIPOL1 (UniProt Q8TD10),inactive: -0.063,–,inactive: -0.156,–,inactive: -0.001,–,inactive: -0.155,inactive: 0.184,inactive: 0.049,inactive: 0.139
MRPL22 (UniProt Q9NWU5),active: -0.424,–,inactive: -0.074,–,inactive: 0.006,–,–,–,inactive: -0.01,–
MPZL3 (UniProt Q6UWV2),–,–,–,–,inactive: -0.017,–,–,–,inactive: 0.05,–
